Results are given in words; binding and its absence hold for the method and conditions named. In cells and extracts the contact can be indirect. Some entries that bind do so weakly or less than the wild type. For part of these data: Sequences can lack the tags named with a protein.
Assays:
[1] = biological target: T1, menin (expressed from a transfected plasmid in HEK293 cells) (UniProt O00255); test: co-IP; menin immunoprecipitated (goat antibody from Bethyl, protein G agarose) from whole cell extracts of HEK293 cells transfected with menin and FBP1 plasmids; NP-40(2) buffer (150 mM NaCl, 1% TritonX-100, 50 mM Tris), 4°C; immunoblot for FBP1; IgG as control
T1 sequence: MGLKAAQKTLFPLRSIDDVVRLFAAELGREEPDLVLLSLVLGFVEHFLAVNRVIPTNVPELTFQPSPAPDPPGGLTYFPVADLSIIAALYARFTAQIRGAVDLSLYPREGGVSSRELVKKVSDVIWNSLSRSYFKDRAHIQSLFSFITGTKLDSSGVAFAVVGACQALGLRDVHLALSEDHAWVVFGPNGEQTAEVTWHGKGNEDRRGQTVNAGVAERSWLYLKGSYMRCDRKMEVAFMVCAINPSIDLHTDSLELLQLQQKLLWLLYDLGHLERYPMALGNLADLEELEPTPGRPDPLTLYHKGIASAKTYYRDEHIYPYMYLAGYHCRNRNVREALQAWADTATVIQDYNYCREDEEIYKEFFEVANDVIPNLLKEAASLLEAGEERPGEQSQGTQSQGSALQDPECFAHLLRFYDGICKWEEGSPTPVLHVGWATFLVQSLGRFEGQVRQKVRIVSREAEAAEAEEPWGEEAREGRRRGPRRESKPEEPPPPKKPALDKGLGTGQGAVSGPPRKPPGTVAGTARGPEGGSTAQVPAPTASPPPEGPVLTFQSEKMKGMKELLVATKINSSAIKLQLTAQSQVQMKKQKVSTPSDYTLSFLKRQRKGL

Sequences of proteins named here, by UniProt entry; tags and fusion partners are left off.
UniProt Q96AE4: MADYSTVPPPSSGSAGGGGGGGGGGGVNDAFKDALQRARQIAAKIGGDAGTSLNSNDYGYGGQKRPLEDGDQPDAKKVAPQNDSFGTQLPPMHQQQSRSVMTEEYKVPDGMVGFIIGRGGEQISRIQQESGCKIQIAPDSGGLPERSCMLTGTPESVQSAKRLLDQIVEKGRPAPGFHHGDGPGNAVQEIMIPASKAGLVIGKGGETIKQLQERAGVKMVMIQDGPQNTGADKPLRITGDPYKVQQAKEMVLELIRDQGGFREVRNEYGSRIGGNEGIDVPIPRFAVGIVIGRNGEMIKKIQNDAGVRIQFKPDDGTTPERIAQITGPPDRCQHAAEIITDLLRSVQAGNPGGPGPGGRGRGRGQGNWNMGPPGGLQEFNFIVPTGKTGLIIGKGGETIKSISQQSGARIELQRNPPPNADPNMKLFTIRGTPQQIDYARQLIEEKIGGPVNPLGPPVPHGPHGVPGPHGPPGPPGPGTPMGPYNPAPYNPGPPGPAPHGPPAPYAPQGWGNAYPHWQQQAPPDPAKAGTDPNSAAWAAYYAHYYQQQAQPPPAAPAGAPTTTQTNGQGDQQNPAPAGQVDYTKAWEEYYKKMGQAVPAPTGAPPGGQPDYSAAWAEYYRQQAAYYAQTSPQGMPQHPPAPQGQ

[2] = biological target: Flag-BAP (bacterial alkaline phosphatase) [phosphatase: P00634]; test: pull-down; Flag-menin or Flag-BAP beads (equal concentrations, purified from bacterial cells) incubated with whole cell lysates of HEK293 cells transfected with FBP1 plasmid, 4°C overnight; washed with 0.1% Triton in 1X PBS; immunoblot for FBP1; only the target purified
[3] = biological target: T2, Flag-menin (UniProt O00255); test: as above
T2 sequence: T1 sequence

binding [1]: binds | binding [2]: no binding | binding [3]: binds
Substance: FBP1 (expressed from a transfected plasmid in HEK293 cells) (from UniProt Q96AE4 1-644)

— PMC4123598
